# Values quoted from earlier work as cited in patent US20200101067A1 (IRR, Inc., priority 2013, published 2020).
# Sequences of proteins named here, by UniProt entry; tags and fusion partners are left off.
# UniProt P35367, whole entry: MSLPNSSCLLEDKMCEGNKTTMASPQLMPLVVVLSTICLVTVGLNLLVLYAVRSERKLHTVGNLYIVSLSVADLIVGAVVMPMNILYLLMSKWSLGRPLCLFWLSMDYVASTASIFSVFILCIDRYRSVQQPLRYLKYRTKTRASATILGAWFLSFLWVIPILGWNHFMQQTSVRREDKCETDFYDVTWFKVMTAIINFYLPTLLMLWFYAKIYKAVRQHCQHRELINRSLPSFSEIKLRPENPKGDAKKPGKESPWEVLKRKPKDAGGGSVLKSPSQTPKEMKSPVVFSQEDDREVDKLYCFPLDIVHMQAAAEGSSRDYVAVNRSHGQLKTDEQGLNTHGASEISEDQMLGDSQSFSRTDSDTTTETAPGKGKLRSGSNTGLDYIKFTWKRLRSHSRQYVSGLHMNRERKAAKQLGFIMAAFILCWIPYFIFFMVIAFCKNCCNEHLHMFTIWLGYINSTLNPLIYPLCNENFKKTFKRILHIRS
# Columns and labels:
# H1 receptor = H1 receptor (Homo sapiens, UniProt P35367)
# [1] = in vivo
smiles,measurement,setting,value
"O=C(O)COCCN1CCN([C@H](c2ccccc2)c2ccc(Cl)cc2)CC1 [Levocetirizine, levocetirizine]","Receptor affinity in an acidic ph, increased",H1 receptor,increased 5x
same,Time to peak plasma level,[1],0.9 h
